Among the data in patent publication US20180355044A1 are binding values, retold here.

No constants are given. Whether binding was seen depends on the method and setting. Some entries that bind do so weakly or less than the wild type. For part of these data: Sequences can lack the tags named with a protein.

The target of test [1] is T1, CLL-1 bearing a His Tag.
T1 sequence: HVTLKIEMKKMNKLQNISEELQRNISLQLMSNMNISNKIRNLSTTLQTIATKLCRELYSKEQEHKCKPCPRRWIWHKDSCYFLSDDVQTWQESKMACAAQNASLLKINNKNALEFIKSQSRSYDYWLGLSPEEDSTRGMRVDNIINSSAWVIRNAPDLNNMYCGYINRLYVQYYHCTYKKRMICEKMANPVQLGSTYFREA
The test can be described thus: ELISA on His-tagged CLL-1, purified antibody. In general terms: ELISA stands for enzyme-linked immunosorbent assay.

Test [2] deals with T1, CLL-1 bearing a His Tag. The test can be described thus: ELISA on His-tagged CLL-1, transiently expressed antibody.
In test [3] the target is T1, CLL-1 bearing a His Tag. The test can be described thus: competitive ELISA on His-tagged CLL-1; binding of mouse M31 is detected, the named antibody is the competitor.
Test [4] concerns the target T2, cynomolgus CLL-1 on cynomolgus PBMC.
T2 sequence: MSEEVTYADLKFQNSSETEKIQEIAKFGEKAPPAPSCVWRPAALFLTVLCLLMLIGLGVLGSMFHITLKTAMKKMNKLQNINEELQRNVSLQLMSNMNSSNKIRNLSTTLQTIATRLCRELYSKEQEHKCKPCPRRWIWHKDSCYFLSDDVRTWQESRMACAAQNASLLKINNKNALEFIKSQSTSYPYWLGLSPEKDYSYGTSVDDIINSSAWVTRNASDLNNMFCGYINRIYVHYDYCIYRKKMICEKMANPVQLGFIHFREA
The test can be described thus: flow cytometry on pooled cynomolgus PBMC gated for lineage markers. Background: Flow cytometry measures light scatter and fluorescence of single cells or particles in a stream.

Substrate in test [5]: T3, C type Lectin Like molecule 1 (CLL-1), human, on cells (human) (UniProt Q5QGZ9)
T3 sequence (looked up): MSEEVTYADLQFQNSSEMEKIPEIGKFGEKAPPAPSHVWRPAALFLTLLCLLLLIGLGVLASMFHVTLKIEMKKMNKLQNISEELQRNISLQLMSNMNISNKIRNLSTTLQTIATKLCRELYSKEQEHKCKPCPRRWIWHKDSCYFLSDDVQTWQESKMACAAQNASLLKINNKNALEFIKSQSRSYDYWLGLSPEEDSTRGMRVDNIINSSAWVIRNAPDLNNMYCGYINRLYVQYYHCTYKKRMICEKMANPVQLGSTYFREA
The test can be described thus: flow cytometry on 293 cells expressing CLL-1, goat anti-human FITC.

Substrate in test [6]: T3, 
The test can be described thus: flow cytometry, goat anti-human FITC, MFI minus isotype HuIgG1; CLL-1-expressing AML cell line, panel without title (HL-60 by the order of the legend); signal nearly lost in the lower panel (knockout cells).

Substrate in test [7]: T3, 
The test can be described thus: flow cytometry, goat anti-human FITC, MFI minus isotype HuIgG1; CLL-1-expressing AML cell line, panel without title (OCI-AML-5 by the order of the legend); signal nearly lost in the lower panel (knockout cells).

B1: ChM31 (antibody, V domains shown)
VH: EVQLQQSGPELVKPGASVKMSCKASGYTFTSYVMHWVKQKPGQGLEWIGYINPYNDGTKYNEKFKGKATLTSDTSSSTAYMELNSLTSEDSAVYFCARPIYFDNDYFDYWGQGTTLKVSS
VL: TIVLTQSPASLAVSLGQRATISCRASESVDSYGNSFMHWYQQKPGQPPKLLIYLASNLESGVPARFSGSGSRTDFTLTIDPVEADDAATYYCQQNNYDPWTFGGGTKLEIK
On to B1, for which the binding result with CLL-1 bearing a His Tag [1], in the test with CLL-1 bearing a His Tag [2] and with CLL-1 bearing a His Tag [3] was “binds” in each case.

B2: HuM31-VH1/VL2 (antibody, V domains shown)
VH: QVQLVQSGAEVKKPGASVKVSCKASGYTFTSYVMHWVRQAPGQRLEWIGYINPYNDGTKYNEKFKGKATLTSDTSTSTAYMELRSLRSDDTAVYYCARPIYFDNDYFDYWGQGTTVTVSS
VL: DIVMTQSPDSLAVSLGERATINCRASESVDSYGNSFMHWYQQKPGQPPKLLIYLASNLESGVPARFSGSGSGTDFTLTIDPVEADDAATYYCQQNNYDPWTFGGGTKLEIK
On to B2, for which, in the test with CLL-1 bearing a His Tag [2], the binding entry is “binds”.

B3: M31-ChVH/HuVL1 (antibody, V domains shown)
VH: EVQLQQSGPELVKPGASVKMSCKASGYTFTSYVMHWVKQKPGQGLEWIGYINPYNDGTKYNEKFKGKATLTSDTSSSTAYMELNSLTSEDSAVYFCARPIYFDNDYFDYWGQGTTLKVSS
VL: DIVMTQSPDSLAVSLGERATINCRASESVDSYGNSFMHWYQQKPGQPPKLLIYLASNLESGVPDRFSGSGSRTDFTLTIDPVEADDAATYYCQQNNYDPWTFGGGTKLEIK
As for B3, the binding entry with CLL-1 bearing a His Tag [2] is “binds”.

B4: HuM31-VH4/VL2 (antibody, V domains shown)
VH: QVQLVQSGAEVKKPGASVKVSCKASGYTFTSYVMHWVRQAPGRRLEWIGYINPYNDGTKYNEKFKGRVTITSDTSASTAYMELSSLRSEDTAVYYCARPIYFDNDYFDYWGQGTLVTVSS
VL: DIVMTQSPDSLAVSLGERATINCRASESVDSYGNSFMHWYQQKPGQPPKLLIYLASNLESGVPARFSGSGSGTDFTLTIDPVEADDAATYYCQQNNYDPWTFGGGTKLEIK
With B4, the binding result in the test with CLL-1 bearing a His Tag [1], with CLL-1 bearing a His Tag [2] and with CLL-1 bearing a His Tag [3] was “binds” throughout.

B5: HuM31-VH3/VL2 (antibody, V domains shown)
VH: QVQLVQSGAEVKKPGASVKVSCKASGYTFTSYVMHWVRQAPGRRLEWIGYINPYNDGTKYNEKFKGKATITSDTSASTAYMELSSLRSEDTAVYYCARPIYFDNDYFDYWGQGTLVTVSS
VL: DIVMTQSPDSLAVSLGERATINCRASESVDSYGNSFMHWYQQKPGQPPKLLIYLASNLESGVPARFSGSGSGTDFTLTIDPVEADDAATYYCQQNNYDPWTFGGGTKLEIK
Turning to B5, the binding entry with CLL-1 bearing a His Tag [1], with CLL-1 bearing a His Tag [2] and with CLL-1 bearing a His Tag [3] was “binds” throughout.

B6: HuM31-VH2/VL2 (antibody, V domains shown)
VH: QVQLVQSGAEVKKPGASVKVSCKASGYTFTSYVMHWVRQAPGQRLEWIGYINPYNDGTKYNEKFKGRATLTSDTSTSTAYMELRSLRSDDTAVYYCARPIYFDNDYFDYWGQGTTVTVSS
VL: DIVMTQSPDSLAVSLGERATINCRASESVDSYGNSFMHWYQQKPGQPPKLLIYLASNLESGVPARFSGSGSGTDFTLTIDPVEADDAATYYCQQNNYDPWTFGGGTKLEIK
Regarding B6, the binding entry in the test with CLL-1 bearing a His Tag [1], with CLL-1 bearing a His Tag [2] and in the test with CLL-1 bearing a His Tag [3] was “binds” throughout.

B7: M31-ChVH/HuVL2 (antibody, V domains shown)
VH: EVQLQQSGPELVKPGASVKMSCKASGYTFTSYVMHWVKQKPGQGLEWIGYINPYNDGTKYNEKFKGKATLTSDTSSSTAYMELNSLTSEDSAVYFCARPIYFDNDYFDYWGQGTTLKVSS
VL: DIVMTQSPDSLAVSLGERATINCRASESVDSYGNSFMHWYQQKPGQPPKLLIYLASNLESGVPARFSGSGSGTDFTLTIDPVEADDAATYYCQQNNYDPWTFGGGTKLEIK
In the case of B7, in the test with CLL-1 bearing a His Tag [2], the binding result is “binds”.

B8: M31 (antibody, V domains shown)
VH: EVQLQQSGPELVKPGASVKMSCKASGYTFTSYVMHWVKQKPGQGLEWIGYINPYNDGTKYNEKFKGKATLTSDTSSSTAYMELNSLTSEDSAVYFCARPIYFDNDYFDYWGQGTTLKVSS
VL: TIVLTQSPASLAVSLGQRATISCRASESVDSYGNSFMHWYQQKPGQPPKLLIYLASNLESGVPARFSGSGSRTDFTLTIDPVEADDAATYYCQQNNYDPWTFGGGTKLEIK
For B8, the binding entry in test [4] was “binds”.

B9: VH4A+L4D (antibody, V domains shown)
VH: EVQLVQSGAEVKKPGASVKMSCKASGYTFTSYFIHWVRQAPGQGLEWIGFINPYNDGSKYAQKFQGRATLTSDKSTSTVYMELSSLRSEDTAVYYCTRDDGYYGYAMDYWGQGTLVTVSS
VL: DIQMTQSPSSLSASVGDRVTLTCRATQELSGYLSWLQQKPGKAIKRLIYAASTLDSGVPSRFSGNGAGTDYTLTISSLQPEDFATYYCLQYAIYPYTFGQGTKLEIK
As for B9, the binding result in test [5], in test [6] and in test [7] was “binds” each time.

B10: VH4A+L4 (antibody, V domains shown)
VH: EVQLVQSGAEVKKPGASVKMSCKASGYTFTSYFIHWVRQAPGQGLEWIGFINPYNDGSKYAQKFQGRATLTSDKSTSTVYMELSSLRSEDTAVYYCTRDDGYYGYAMDYWGQGTLVTVSS
VL: DIQMTQSPSSLSASVGDRVTLTCRATQELSGYLSWLQQKPGKAIKRLIYAASTLDSGVPSRFSGSGSGTDYTLTISSLQPEDFATYYCLQYAIYPYTFGQGTKLEIK
B10: in test [5], the binding result was “binds”.

B11: VH4A+L4DR (antibody, V domains shown)
VH: EVQLVQSGAEVKKPGASVKMSCKASGYTFTSYFIHWVRQAPGQGLEWIGFINPYNDGSKYAQKFQGRATLTSDKSTSTVYMELSSLRSEDTAVYYCTRDDGYYGYAMDYWGQGTLVTVSS
VL: DIQMTQSPSSLSASVGDRVTLTCRATQELSGYLSWLQQKPGKAIKRLIYAASTLDSGVPSRFSGNRAGTDYTLTISSLQPEDFATYYCLQYAIYPYTFGQGTKLEIK
As for B11, the binding result in test [5], in test [6] and in test [7] was “binds” each time.

B12: chimeric M26 (human constant, mouse variable) (antibody, V domains shown)
VH: EVQLQQSGPELVKPGASVKMSCKASGYTFTSYFIHWVKQKPGQGLEWIGFINPYNDGSKYNEKFKGKATLTSDKSSSTAYMELSSLTSEDSAVYYCTRDDGYYGYAMDYWGQGTLVTVSS
VL: DIQMTQSPSSLSASLGERVSLTCRATQELSGYLSWLQQKPDGTIKRLIYAASTLDSGVPKRFSGNRSGSDYSLTISSLESEDFADYYCLQYAIYPYTFGGGTKLEIK
On to B12, for which the binding entry in test [5], in test [6] and in test [7] was “binds” each time.

B13: ChiM26HC+LC (antibody, V domains shown)
VH: EVQLQQSGPELVKPGASVKMSCKASGYTFTSYFIHWVKQKPGQGLEWIGFINPYNDGSKYNEKFKGKATLTSDKSSSTAYMELSSLTSEDSAVYYCTRDDGYYGYAMDYWGQGTLVTVSS
VL: DIQMTQSPSSLSASLGERVSLTCRATQELSGYLSWLQQKPDGTIKRLIYAASTLDSGVPKRFSGNRSGSDYSLTISSLESEDFADYYCLQYAIYPYTFGGGTKLEIK
In the case of B13, the binding entry in test [6] and in test [7] was “binds” throughout.

B14: VH4A+ChiM26LC (antibody, V domains shown)
VH: EVQLVQSGAEVKKPGASVKMSCKASGYTFTSYFIHWVRQAPGQGLEWIGFINPYNDGSKYAQKFQGRATLTSDKSTSTVYMELSSLRSEDTAVYYCTRDDGYYGYAMDYWGQGTLVTVSS
VL: DIQMTQSPSSLSASLGERVSLTCRATQELSGYLSWLQQKPDGTIKRLIYAASTLDSGVPKRFSGNRSGSDYSLTISSLESEDFADYYCLQYAIYPYTFGGGTKLEIK
Take B14: the binding result in test [6] and in test [7] was “binds” each time.
